Values from PubChem BioAssay AID1224830 (NIAID, 2016).
Test: 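Host factors that control LPS-induced TNF expression in human macrophages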 (primary screen). Cell system: human THP-1 monocytic leukaemia cells, TNF dual-luciferase reporter clone, PMA-differentiated to macrophage-like cells. Reagents: siRNA pool against human genes, 50 nM. Timing: LPS for 4 h, given about 3 days after siRNA transfection. Challenge: bacterial LPS (TLR4 ligand), 10 ng/ml. Measured: 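Ratio of firefly to renilla light, scaled to the plate median and expressed as a robust z-score per replicate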. Reading the numbers: TNF reporter robust z-score: higher = stronger TNF reporter response to LPS. Rule for the call: 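a well is active when its z-score exceeds 2.8 or falls below -1.5; control wells carry no call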.
The whole screen tested about 18,000 reagents; below is a random part of them. About 2,900 of them (16%) count as active. 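Calls are made per well; low scores hint the gene aids the LPS response, high scores that it dampens it.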 Repeated entries: four replicate wells of each siRNA pool.

The opening 10 records, ahead of the listing:
Gene,TNF reporter robust z-score,call
OR2F2 (olfactory receptor family 2 subfamily F member 2),1.78,inactive
OR2F2 (olfactory receptor family 2 subfamily F member 2),-0.24,inactive
OR2F2 (olfactory receptor family 2 subfamily F member 2),0.12,inactive
OR2F2 (olfactory receptor family 2 subfamily F member 2),0.17,inactive
TMEM67 (transmembrane protein 67),-0.72,inactive
TMEM67 (transmembrane protein 67),-0.5,inactive
TMEM67 (transmembrane protein 67),0.06,inactive
TMEM67 (transmembrane protein 67),0.34,inactive
BACH2 (BACH transcriptional regulator 2),-1.38,inactive
BACH2 (BACH transcriptional regulator 2),-0.8,inactive

Results, repeating the preview:
Gene,TNF reporter robust z-score,call
OR2F2 (olfactory receptor family 2 subfamily F member 2),1.78,inactive
OR2F2 (olfactory receptor family 2 subfamily F member 2),-0.24,inactive
OR2F2 (olfactory receptor family 2 subfamily F member 2),0.12,inactive
OR2F2 (olfactory receptor family 2 subfamily F member 2),0.17,inactive
TMEM67 (transmembrane protein 67),-0.72,inactive
TMEM67 (transmembrane protein 67),-0.5,inactive
TMEM67 (transmembrane protein 67),0.06,inactive
TMEM67 (transmembrane protein 67),0.34,inactive
BACH2 (BACH transcriptional regulator 2),-1.38,inactive
BACH2 (BACH transcriptional regulator 2),-0.8,inactive
BACH2 (BACH transcriptional regulator 2),-0.76,inactive
BACH2 (BACH transcriptional regulator 2),1.06,inactive
RUNX1T1 (RUNX1 partner transcriptional co-repressor 1),-0.35,inactive
RUNX1T1 (RUNX1 partner transcriptional co-repressor 1),-0.02,inactive
RUNX1T1 (RUNX1 partner transcriptional co-repressor 1),-0.85,inactive
RUNX1T1 (RUNX1 partner transcriptional co-repressor 1),0.28,inactive
FERD3L (Fer3 like bHLH transcription factor),-1.33,inactive
FERD3L (Fer3 like bHLH transcription factor),-1.13,inactive
FERD3L (Fer3 like bHLH transcription factor),-1.29,inactive
FERD3L (Fer3 like bHLH transcription factor),-1.42,inactive
PMS2P5,0.95,inactive
PMS2P5,0.01,inactive
PMS2P5,0.61,inactive
PMS2P5,0.98,inactive
ALOXE3 (arachidonate epidermal lipoxygenase 3),-0.05,inactive
ALOXE3 (arachidonate epidermal lipoxygenase 3),-1.02,inactive
ALOXE3 (arachidonate epidermal lipoxygenase 3),-0.06,inactive
ALOXE3 (arachidonate epidermal lipoxygenase 3),1.8,inactive
ARHGAP11A (Rho GTPase activating protein 11A),2.22,inactive
ARHGAP11A (Rho GTPase activating protein 11A),0.75,inactive
ARHGAP11A (Rho GTPase activating protein 11A),2.86,active
ARHGAP11A (Rho GTPase activating protein 11A),-0.63,inactive
HAO2 (hydroxyacid oxidase 2),4.75,active
HAO2 (hydroxyacid oxidase 2),0.45,inactive
HAO2 (hydroxyacid oxidase 2),-0.79,inactive
HAO2 (hydroxyacid oxidase 2),1.51,inactive
NASP (nuclear autoantigenic sperm protein),-0.44,inactive
NASP (nuclear autoantigenic sperm protein),0.88,inactive
NASP (nuclear autoantigenic sperm protein),-1.67,active
NASP (nuclear autoantigenic sperm protein),0,inactive
SLC25A24,0.18,inactive
SLC25A24,-0.22,inactive
SLC25A24,0.37,inactive
SLC25A24,-0.42,inactive
SYNE3 (spectrin repeat containing nuclear envelope family member 3),0.35,inactive
SYNE3 (spectrin repeat containing nuclear envelope family member 3),0.15,inactive
SYNE3 (spectrin repeat containing nuclear envelope family member 3),-0.75,inactive
SYNE3 (spectrin repeat containing nuclear envelope family member 3),0.39,inactive
TEKTL1 (tektin like 1),0.06,inactive
TEKTL1 (tektin like 1),-0.2,inactive
TEKTL1 (tektin like 1),0.52,inactive
TEKTL1 (tektin like 1),1.54,inactive
TRIM27 (tripartite motif containing 27),-0.8,inactive
TRIM27 (tripartite motif containing 27),-0.75,inactive
TRIM27 (tripartite motif containing 27),-0.67,inactive
TRIM27 (tripartite motif containing 27),-0.91,inactive
TNFSF12 (TNF superfamily member 12),-0.38,inactive
TNFSF12 (TNF superfamily member 12),0.05,inactive
TNFSF12 (TNF superfamily member 12),-0.29,inactive
TNFSF12 (TNF superfamily member 12),0.19,inactive
SYT15 (synaptotagmin 15),-0.63,inactive
SYT15 (synaptotagmin 15),0.32,inactive
SYT15 (synaptotagmin 15),-0.62,inactive
SYT15 (synaptotagmin 15),-0.14,inactive
RILP (Rab interacting lysosomal protein),-1.08,inactive
RILP (Rab interacting lysosomal protein),-1.21,inactive
RILP (Rab interacting lysosomal protein),-1.3,inactive
RILP (Rab interacting lysosomal protein),-0.64,inactive
PNOC (prepronociceptin),-0.68,inactive
PNOC (prepronociceptin),-0.25,inactive
PNOC (prepronociceptin),-1.14,inactive
PNOC (prepronociceptin),-0.77,inactive
"DCPS (decapping enzyme, scavenger)",-0.82,inactive
"DCPS (decapping enzyme, scavenger)",0.95,inactive
"DCPS (decapping enzyme, scavenger)",-0.09,inactive
"DCPS (decapping enzyme, scavenger)",-0.29,inactive
RGS12 (regulator of G protein signaling 12),0.64,inactive
RGS12 (regulator of G protein signaling 12),0.94,inactive
RGS12 (regulator of G protein signaling 12),-0.15,inactive
RGS12 (regulator of G protein signaling 12),0.74,inactive
PES1 (pescadillo ribosomal biogenesis factor 1),0,inactive
PES1 (pescadillo ribosomal biogenesis factor 1),1.15,inactive
PES1 (pescadillo ribosomal biogenesis factor 1),3.28,active
PES1 (pescadillo ribosomal biogenesis factor 1),1.05,inactive
UBE4B (ubiquitination factor E4B),-0.97,inactive
UBE4B (ubiquitination factor E4B),0.52,inactive
UBE4B (ubiquitination factor E4B),0.3,inactive
UBE4B (ubiquitination factor E4B),0.46,inactive
SSR4 (signal sequence receptor subunit 4),0.25,inactive
SSR4 (signal sequence receptor subunit 4),0.85,inactive
SSR4 (signal sequence receptor subunit 4),-0.14,inactive
SSR4 (signal sequence receptor subunit 4),1.02,inactive
"GFER (growth factor, augmenter of liver regeneration)",0.41,inactive
"GFER (growth factor, augmenter of liver regeneration)",2.03,inactive
"GFER (growth factor, augmenter of liver regeneration)",3.66,active
"GFER (growth factor, augmenter of liver regeneration)",-0.05,inactive
SLIRP (SRA stem-loop interacting RNA binding protein),-0.23,inactive
SLIRP (SRA stem-loop interacting RNA binding protein),-0.17,inactive
SLIRP (SRA stem-loop interacting RNA binding protein),-0.32,inactive
SLIRP (SRA stem-loop interacting RNA binding protein),-0.22,inactive
IQCK (IQ motif containing K),-1.52,active
IQCK (IQ motif containing K),-0.85,inactive
IQCK (IQ motif containing K),-1.69,active
IQCK (IQ motif containing K),-1.55,active
FBXO8 (F-box protein 8),0.09,inactive
FBXO8 (F-box protein 8),-2.43,active
FBXO8 (F-box protein 8),0.46,inactive
FBXO8 (F-box protein 8),0.32,inactive
"GPAM (glycerol-3-phosphate acyltransferase, mitochondrial)",0.59,inactive
"GPAM (glycerol-3-phosphate acyltransferase, mitochondrial)",0.43,inactive
"GPAM (glycerol-3-phosphate acyltransferase, mitochondrial)",0.71,inactive
"GPAM (glycerol-3-phosphate acyltransferase, mitochondrial)",0.4,inactive
